Some results were stated once for a whole list of compounds, not compound by compound.
How the values were obtained:
MRSA 43300 biofilms = experiment: MBEC assay (MICCP and MBEC), MRSA 43300; assay type: cell-based, Staphylococcus aureus; settings: MRSA 43300 biofilm; agent alone
Protocol: (§1) Bacterial culture was inoculated in an MBEC pronged-inoculator and incubated for 24 hr to allow biofilm formation. […] The change in optical density at 600 nm (Δ OD600) was measured. Minimum inhibitory concentration (MIC) of each drug is determined as the lowest concentration that inhibited cell growth (ΔOD600<0.05). Fractional inhibitory concentration index (FICI) was calculated as: […]
(§2) Synergistic effects are determined using EUCAST guidelines: synergy (FICI≤0.5), additivity (0.5<FICI<1), and indifference (FICI>1). The treated pronged-inoculator was then washed and transferred to a recovery plate with 200 μL MHB/well to sonicate and recover any remaining biofilm bacteria. The recovery plate was then incubated overnight before measuring ΔOD600 to determine MBECs and FICIs of the drugs tested on the biofilms.
(§3) MBEC assays were utilized on MRSA OU6 and MRSA OU11 and a lab strain MRSA ATCC 43300. […] In this manner, the synergy of BPEI and ampicillin against MRSA biofilms was evaluated. […] The MBEC is determined from cell growth in the recovery plate and reflects the ability of BPEI600, ampicillin, or its combinations to kill the biofilm remaining attached to the prongs of the inoculation lid. […]

MRSA OU6 biofilms = experiment: MBEC assay (MICCP and MBEC), MRSA OU6; assay type: cell-based, Staphylococcus aureus; settings: MRSA OU6 biofilm; agent alone
Protocol: as §1, §2, §3

MRSA OU11 biofilms = experiment: MBEC assay (MICCP and MBEC), MRSA OU11; assay type: cell-based, Staphylococcus aureus; settings: MRSA OU11 biofilm; agent alone
Protocol: as §1, §2, §3

MRSE ATCC 29887 biofilm = experiment: MBEC assay (challenge plate MIC, recovery plate MBEC), MRSE 29887; assay type: cell-based, Staphylococcus epidermidis; settings: MRSE 29887 biofilm; agent alone
Protocol: A sub-culture of MRSE was grown from the cryogenic stock on an agar plate overnight at 35° C. The MBEC plate was inoculated with 150 μL of TSB/well plus 1 μL of a stock culture made from 1 colony/mL of MRSE in TSB. The MBEC inoculator plate was sealed with Parafilm and incubated for 24 hours at 35° C. with 100 rpm shaking to facilitate biofilm formation on the prongs. Following biofilm formation, the lid of the MBEC inoculator was removed and placed in a rinse plate containing 200 μL of sterile PBS for 10 sec. Biofilm growth check (BGC) was performed by breaking a few prongs off using sterile pliers, submerging them in 1 mL PBS, and sonicating them on high for 30 minutes to dislodge the biofilm. After sonication, the biofilm solution was serial-diluted and spot-plated on agar plates for CFU counting to determine the biofilm density on the prongs.
A challenge plate was made in a new pre-sterilized 96-well plate in a checkerboard-assay pattern to test the synergistic activity of BPEI+antibiotic combinations. […] After incubation, the OD600 (optical density at 600 nm) of the recovery plate was measured using a Tecan Infinite M20 plate reader to determine the MBEC of the antimicrobial compounds tested. […] Likewise, the OD600 for the base of the challenge plate was measured […] to determine the MICs of the antimicrobial compounds.

SMILES: CC1(C)S[C@@H]2[C@H](NC(=O)[C@H](N)c3ccccc3)C(=O)N2[C@H]1C(=O)O [ampicillin]
- MBEC (MRSA 43300 biofilms): > 256 µg/mL
- MBEC (MRSA OU6 biofilms): > 256 µg/mL
- MBEC (MRSA OU11 biofilms): > 256 µg/mL

SMILES: CCN1CCN(C(=O)N[C@@H](C(=O)N[C@@H]2C(=O)N3[C@@H]2SC(C)(C)[C@@H]3C(=O)O)c2ccccc2)C(=O)C1=O [piperacillin]
- MBEC (MRSE ATCC 29887 biofilm): exceed 512 μg/mL

From patent publication US20210260101A1, “POTENTIATED ANTIBIOTIC COMPOSITIONS AND METHODS OF USE FOR TREATING BACTERIAL INFECTIONS AND BIOFILMS” (priority 2018, published 2021)
